From PubChem BioAssay AID504467 (National Center for Advancing Translational Sciences (NCATS), 2011)
About 7,700 (2.3%) of roughly 330,000 compounds were called active. Inconclusive means that the source gave no clear call. Such entries were picked first, then a sample of the others. Calls follow the shape of the dose curve; as a rule, active = well fitted inhibition curve with a large enough effect; inconclusive = small, poorly fitted or top-dose-only effect, or effect the other way; inactive = flat fitted curve, though single readings scatter. Potencies of inconclusive entries are doubtful fits and often do not repeat.

Assay: qHTS screen for small molecules that inhibit ELG1-dependent DNA repair in human embryonic kidney (HEK293T) cells expressing luciferase-tagged ELG1; also: nearly all actives have a fitted effect of over 55% in size
Settings: HEK293T ELG1-luciferase reporter, luminescence, 16 h, DNA damage induced by 5-fluorouridine; series mostly up to 46.1 µM
Summary of the method: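 Overnight (16 hr) co-exposure of 2,000 cells/well to 5-fluorouridine and compound at 37 °C preceded detection. Luciferase was quantified via ONE-Glo luminescence; loss of signal denotes inhibition.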
Potency is read from the fitted curve at half-maximal effect.

Row | SMILES | Potency
1 | COc1ccc(CCNC(=O)c2ccc(CS(=O)(=O)c3ccc(C)cc3)o2)cc1OC | active: 16.4 µM
2 | CCn1cc(C(=O)OCC(=O)c2cc(C)n(-c3cccc(C(F)(F)F)c3)c2C)c(=O)c2ccc(C)nc21 | inconclusive: 16.4 µM [inhibitor, single point]
3 | CCC(=O)NC(=S)Nc1ccc(NC(=O)c2cccc([N+](=O)[O-])c2C)cc1 | inconclusive: 25.9 µM [inhibitor, partial curve]
4 | O=C(O)c1ccc(CNS(=O)(=O)c2ccc(Oc3ccccc3Cl)cc2)cc1 | inconclusive: 5.8 µM [inhibitor, partial curve, poor fit]
5 | COc1cc(OC)cc(-c2cc3nc(C)c(CCC(=O)O)c(C)n3n2)c1 | inconclusive: 20.6 µM [inhibitor, partial curve]
6 | c1coc(CNc2c3c(nc4ncnn24)CCCC3)c1 | inactive
7 | Cc1cc(C)c(NS(=O)(=O)c2ccc(NC(=O)c3cccs3)cc2)c(C)c1 | inconclusive: 9.2 µM [inhibitor, partial curve, poor fit]
8 | O=c1c2c(nc3n1CCCCC3)sc1c(O)cccc12 | inconclusive: 3.66 µM [activator, full curve]
9 | CCC(C)Sc1ccc([C@H]2N[C@@](C)(C(=O)OC)[C@H]3C(=O)N(C)C(=O)[C@@H]23)cc1 (stereo partly specified) | inactive
10 | CSCCC(NC(=O)c1ccccc1Br)C(=O)N1CCCC(C(F)(F)F)C1 (stereo unspecified) | inactive
11 | COc1ccc(-c2cnc(SCC(=O)Nc3ccc4c(c3)OCO4)n2Cc2ccco2)cc1 | inconclusive: 20.6 µM [inhibitor, single point]
12 | COc1cccc(N2CCN(S(=O)(=O)c3ccc(-c4cnc(C5CC5)o4)cc3)CC2)c1 | inactive
13 | COc1ccc(-c2csc(NC(=O)c3ccccc3C(=O)O)n2)cc1 | inactive
14 | Cc1csc(NC(=O)c2cnc3ccccc3n2)n1 | inconclusive: 2.31 µM [activator, partial curve]
15 | Nc1nn2c(-c3ccccc3)cc(=O)[nH]c2c1N=Nc1ccc(O)cc1 | inconclusive: 29.1 µM [inhibitor, single point]
16 | CN(CC(=O)Nc1cccc(F)c1)C(=O)c1cn(-c2ccccc2)nc1-c1ccc(Cl)cc1 | inconclusive: 25.1 µM [inhibitor, single point]
17 | Cc1sc2ncnc(N3CCC(C(=O)Nc4ccc(F)cc4Cl)CC3)c2c1C | active: 20.6 µM
18 | COc1cccc2[nH]c3c(N4CCc5ccccc5C4)ncnc3c12 | active: 13 µM
19 | COc1ccccc1C1C=C(c2ccc(C)cc2)Nc2nnnn21 (stereo unspecified) | inconclusive: 16.4 µM [inhibitor, single point]
20 | COc1ccc(-n2c(C)c([N+](=O)[O-])c3ccc(O)c(CN(C)C)c32)cc1 | active: 0.92 µM
21 | Cc1noc(C)c1C(=O)NCCc1ccccc1 | inconclusive: 23.1 µM [activator, single point]
22 | O=C(/C=C\c1ccco1)Oc1cccc2cccnc12 | inconclusive: 25.9 µM [inhibitor, partial curve, poor fit]
23 | Cc1cc2cccc(C)c2nc1SCC(=O)NCC1CCCO1 (stereo unspecified) | inactive
24 | CCc1cc(=O)oc2cc(C)cc(OC(C)C(=O)NCCN3CCOCC3)c12 (stereo unspecified) | inactive

Shown field by field: part of the list above
Cc1cc(C)c(NS(=O)(=O)c2ccc(NC(=O)c3cccs3)cc2)c(C)c1
  Potency: inconclusive: 9.2 µM [inhibitor, partial curve, poor fit]
O=c1c2c(nc3n1CCCCC3)sc1c(O)cccc12
  Potency: inconclusive: 3.66 µM [activator, full curve]

The results go on:

Row | SMILES | Potency
25 | COc1cccc(NC(=S)Nc2cc(C)cc(C)n2)c1 | inconclusive: 6.51 µM [activator, partial curve]
26 | CCN(CC)c1ccc(/C=N/NC(=O)CNC(=O)c2cccs2)cc1 | inconclusive: 20.6 µM [activator, partial curve, poor fit]
27 | Cn1c(COc2ccc(Cl)cc2)nnc1SCC(=O)NC1CCCC1 | inactive
28 | CN(C)S(=O)(=O)c1cccc(NC(=O)CSc2ncnc3ccccc23)c1 | inconclusive: 10.3 µM [inhibitor, partial curve, poor fit]
29 | CN(C)CCNC(=O)c1c(CSc2ccccc2)noc1C(=O)NCc1ccccc1 | inactive
30 | CCSc1nnc(NC(=O)C(C)(C(F)(F)F)C(F)(F)F)s1 | inconclusive: 20.6 µM [inhibitor, single point]
31 | CC(=O)N1CCN(C(=O)c2cc3c(s2)CCC(C)C3)CC1 (stereo unspecified) | inconclusive: 25.9 µM [activator, single point]
32 | Cc1cccc(-c2cc3c(nn2)-c2ccccc2C3=O)c1 | inconclusive: 6.51 µM [activator, partial curve]
33 | CC1CC(=O)Nc2ccc([N+](=O)[O-])cc2N1C (stereo unspecified) | inconclusive: 16.4 µM [activator, partial curve, poor fit]
34 | CCOc1ccc(S(=O)(=O)Nc2cccc(N(C)S(C)(=O)=O)c2)cc1 | inactive
35 | CC(C)C(=O)OCC(=O)NCc1ccccc1Cl | inactive
36 | COc1ccc(/C=N/NC(=O)c2cc(OC)c(OC)c(OC)c2)cc1CN1CCc2cc(OC)c(OC)cc2C1C (stereo unspecified) | inconclusive: 18.3 µM [inhibitor, partial curve, poor fit]
37 | CCOC(=O)c1sc(NC(=O)CSc2nc3ccccc3o2)c(C(=O)OCC)c1C | inactive
38 | CN(C(=O)COc1ccccc1C(=O)NCCOc1ccccc1)c1ccccc1 | active: 10.3 µM
39 | CC(NC(=O)COc1ccccc1Cl)c1ccccc1 (stereo unspecified) | inactive
40 | O=C(NCc1cccc2ccsc12)c1cccs1 | inconclusive: 8.2 µM [activator, partial curve, poor fit]
41 | CCOC(=O)Cc1csc(NC(=O)COC(=O)/C=C/c2ccc(OC)cc2)n1 | inactive
42 | COc1ccc(C2CCCN2C(=S)Nc2cccc(C)c2)cc1OC (stereo unspecified) | inconclusive: 20.6 µM [inhibitor, single point]
43 | C=CCNC(=S)N/N=C1\CCS(=O)(=O)c2ccccc21 | inconclusive: 16.4 µM [inhibitor, partial curve, poor fit]
44 | COc1cccc(-n2nnnc2SCC(=O)NC2CCCC2)c1 | inactive
45 | Cc1ccc(NCC(=O)NNC2=NCCC2)c(C)c1 | inactive
46 | COc1ccccc1N(C)S(=O)(=O)c1ccc(C(=O)Nc2nc(C)c(C(C)=O)s2)cc1 | inconclusive: 18.3 µM [inhibitor, partial curve]
47 | CC1=Nc2cc(C(=O)NCCCN3CCN(C)CC3)ccc2Sc2ccc(C)cc21 | inactive
48 | COc1ccc(OCC(=O)N/N=C2/C=C(C)CC2)cc1 | inactive

Row | SMILES | Potency
49 | Cc1cccc(N2C(S)=C(C#N)C(=O)NC23CCCCC3)c1 | inconclusive: 18.4 µM [activator, partial curve, poor fit]
50 | Cc1c(C(=O)N(C)C)sc(NC(=O)c2cccc([N+](=O)[O-])c2)c1C#N | inconclusive: 23.1 µM [activator, single point]
51 | COc1ccc2oc(-c3ccccc3)c(C(=O)N3CCOCC3)c2c1 | inactive
52 | CC1=NOC(=O)/C1=C/c1ccc(N(C)C)cc1 | inconclusive: 23.1 µM [activator, single point]
53 | Cc1cc(C)cc(OCCn2nnc3ccccc32)c1 | inconclusive: 18.3 µM [activator, partial curve]
54 | O=C1OC(c2ccc(F)cc2)=C/C1=C\c1ccc(O)cc1 | inactive
55 | Cc1ccc(-c2nc(N/N=C/c3cccc([N+](=O)[O-])c3)c3ccccc3n2)cc1 | inconclusive: 20.6 µM [inhibitor, single point]
56 | C/C(=N\NC(=O)COc1ccc(C)cc1Br)c1cc([N+](=O)[O-])cs1 | inconclusive: 13 µM [inhibitor, partial curve, poor fit]
57 | COc1ccc(S(=O)(=O)N(C)C[C@H]2Oc3c(NS(=O)(=O)c4ccc(F)cc4)cccc3C(=O)N([C@H](C)CO)C[C@@H]2C)cc1 | inactive
58 | CC(C)n1c(SCC(=O)Nc2ccc(N3CCOCC3)cc2)nnc1-c1ccco1 | inconclusive: 11.6 µM [activator, partial curve, poor fit]
59 | c1csc(-c2nc(N3CCCCC3)no2)c1 | inconclusive: 14.6 µM [activator, partial curve]
60 | C/C(=N\Nc1cc(N2CCCCC2)nc(C)n1)c1ccc(Br)cc1 | active: 16.4 µM
61 | COc1ccc2[nH]cc(CCNC(=O)Nc3ccccc3C)c2c1 | inactive
62 | OCCCCNCc1ccc(OCc2ccc(Cl)cc2)cc1 | inconclusive: 18.4 µM [activator, partial curve, poor fit]
63 | CCCn1c(N)c(Br)c(=O)[nH]c1=O | inconclusive: 13 µM [activator, single point]
64 | CSCc1ccc(C(=O)NCCSc2ccc(Br)cc2)cc1 | inconclusive: 23.1 µM [activator, partial curve]
65 | Cc1ccc2nc(N3C(=O)C(O)=C(C(=O)c4cc5ccccc5o4)C3c3cccs3)sc2c1 (stereo unspecified) | inconclusive: 2.31 µM [activator, full curve]
66 | N/C(=N\OC(=O)c1ccc(Cl)cc1[N+](=O)[O-])c1cccnc1 | inconclusive: 16.4 µM [activator, partial curve]
67 | N=c1c(C(=O)NCc2ccc3c(c2)OCO3)cc2c(=O)n3ccccc3nc2n1Cc1cccnc1 | inconclusive: 20.6 µM [inhibitor, partial curve]
68 | O=C(Nc1ccc(-c2nc3ccccc3o2)cc1)c1ccc(N2CCOCC2)c([N+](=O)[O-])c1 | inconclusive: 4.61 µM [inhibitor, single point]
69 | O=c1oc2cc(O)ccc2cc1S(=O)(=O)c1ccccc1 | inconclusive: 23.1 µM [activator, partial curve, poor fit]
70 | CCC(C)(C)NC(=O)C(c1ccco1)N(C(=O)c1csnn1)c1cccc(F)c1 (stereo unspecified) | inactive
71 | CC(=O)Oc1ccc(-c2cccc(C(=O)OCC(=O)Nc3ccccc3Oc3ccccc3)c2)cc1 | inconclusive: 20.6 µM [inhibitor, single point]

Some of the entries so far, with tabs.
Row	SMILES	Potency
12	COc1cccc(N2CCN(S(=O)(=O)c3ccc(-c4cnc(C5CC5)o4)cc3)CC2)c1	inactive
13	COc1ccc(-c2csc(NC(=O)c3ccccc3C(=O)O)n2)cc1	inactive
14	Cc1csc(NC(=O)c2cnc3ccccc3n2)n1	inconclusive: 2.31 µM [activator, partial curve]
17	Cc1sc2ncnc(N3CCC(C(=O)Nc4ccc(F)cc4Cl)CC3)c2c1C	active: 20.6 µM
21	Cc1noc(C)c1C(=O)NCCc1ccccc1	inconclusive: 23.1 µM [activator, single point]
23	Cc1cc2cccc(C)c2nc1SCC(=O)NCC1CCCO1 (stereo unspecified)	inactive
31	CC(=O)N1CCN(C(=O)c2cc3c(s2)CCC(C)C3)CC1 (stereo unspecified)	inconclusive: 25.9 µM [activator, single point]
33	CC1CC(=O)Nc2ccc([N+](=O)[O-])cc2N1C (stereo unspecified)	inconclusive: 16.4 µM [activator, partial curve, poor fit]
38	CN(C(=O)COc1ccccc1C(=O)NCCOc1ccccc1)c1ccccc1	active: 10.3 µM
41	CCOC(=O)Cc1csc(NC(=O)COC(=O)/C=C/c2ccc(OC)cc2)n1	inactive
51	COc1ccc2oc(-c3ccccc3)c(C(=O)N3CCOCC3)c2c1	inactive
52	CC1=NOC(=O)/C1=C/c1ccc(N(C)C)cc1	inconclusive: 23.1 µM [activator, single point]
55	Cc1ccc(-c2nc(N/N=C/c3cccc([N+](=O)[O-])c3)c3ccccc3n2)cc1	inconclusive: 20.6 µM [inhibitor, single point]
64	CSCc1ccc(C(=O)NCCSc2ccc(Br)cc2)cc1	inconclusive: 23.1 µM [activator, partial curve]
66	N/C(=N\OC(=O)c1ccc(Cl)cc1[N+](=O)[O-])c1cccnc1	inconclusive: 16.4 µM [activator, partial curve]
70	CCC(C)(C)NC(=O)C(c1ccco1)N(C(=O)c1csnn1)c1cccc(F)c1 (stereo unspecified)	inactive
